# Experimental data from PubChem BioAssay AID2685 (National Center for Advancing Translational Sciences (NCATS), 2010).
# The list shows a part of the results. Shown are side measurements of this screen, not its main read-out; they come without a call. The list favours compounds with an active or inconclusive main result. The note in brackets gives the kind of curve behind each potency; many fits are weak.
# Experiment: qHTS Assay for Lipid Storage Modulators in Drosophila S3 Cells;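 as to cell number change: cells counted by Cell Tracker Red CMTPX staining in the red channel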
# Conditions: BODIPY lipid droplet fluorescence, 18-24 h; for cell number change: measured here: cell count max response, cells fed with added oleic acid
# Outline: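 Laser-scanning cytometry quantifies lipid droplet accumulation (500–530 nm total intensity; droplet/cell object ratio) in oleic acid-fed (400 uM added) Drosophila S3 cells treated with a concentration series. 20 uM Triacsin C defined 100% inhibition.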
# [1] = measured here: lipid fluorescence (Fed channel) AC50, cells fed with added oleic acid
# [2] = measured here: cell number channel AC50, cells fed with added oleic acid
Structure (SMILES),cell number change [%],AC50 [1],AC50 [2]
Cc1cc(Nc2ccc(F)cc2Cl)n2nc(C)nc2n1,12.9,"29.1 µM [rising, single point]",
COc1cc(C(c2c(C)[nH][nH]c2=O)c2c(C)[nH][nH]c2=O)cc(Br)c1OC,10.1,"2.91 µM [rising, partial curve, poor fit]",
CC(NC(=O)C(=O)N1CCCCC1)C(c1cccs1)N1CCN(Cc2ccccc2)CC1 (centres undefined),8.96,"29.1 µM [rising, single point]",
CN(C)S(=O)(=O)c1ccc(C(=O)Nc2nnc(-c3cccs3)o2)cc1,-10.1,"0.326 µM [falling, full curve, poor fit]",
CC(C)(CNC(=O)c1cccs1)N1CCOCC1,-5.07,"6.51 µM [falling, single point]","4.11 µM [falling, single point]"
Cc1cccc(C(=O)NNC(=O)c2c(O)c3ccccc3n(C)c2=O)c1,72.9,,"14.6 µM [rising, partial curve]"
CC(C)N(C(C)C)S(=O)(=O)c1ccc(NN)nc1,14.8,"5.8 µM [rising, full curve, poor fit]",
Cc1nn(-c2ccccc2)c(C)c1/C=C/C(=O)OC(C)C(=O)Nc1ncc(Cl)cc1Cl (centres undefined),5.48,"2.59 µM [rising, partial curve]",
CCOC(=O)c1c(C)n(-c2ccccc2)c2ccc(O)c(CN(C)C)c12,2.31,,"0.651 µM [falling, single point]"
CC(C)Oc1ccc(C(=O)NCc2ccco2)cc1,4.17,"29.1 µM [rising, single point]",
O=C(COC(=O)COc1ccccc1[N+](=O)[O-])Nc1ccc(S(=O)(=O)N2CCCCC2)cc1,-1.08,"0.164 µM [rising, full curve, poor fit]",
Cc1ccc(NC(=S)Nc2ccc(F)cc2)cc1,33.1,,"0.731 µM [rising, full curve, poor fit]"
COc1ccccc1N1CCN(C(=O)CN(c2ccccc2OC)S(=O)(=O)c2ccccc2)CC1,-3.5,"2.31 µM [rising, single point]",
CN(C)/C=C(/C(=O)c1ccccc1)n1cncn1,128,"6.51 µM [falling, single point]","4.11 µM [falling, single point]"
Cc1cc(C)c2nc(-c3cccc(Cl)c3)c(C)c(C(=O)N3CCOCC3)c2c1,5.57,,
Cc1ccc(S(=O)(=O)N2[C@@H](c3ccccc3)C(C(=O)O)=CC[C@H]2c2ccc(C(C)C)cc2)cc1,11.7,"5.17 µM [rising, full curve]",
COc1ccc(Br)cc1CN1CCSCC1,26,"29.1 µM [rising, partial curve]",
C=CCN=C1S/C(=C/c2cccc([N+](=O)[O-])c2)C(=O)N1CC=C,2.34,"29.1 µM [rising, single point]",
CN(Cc1cn[nH]c1-c1ccc(-c2ccccc2)cc1)CC1CCOCC1,10.3,"1.84 µM [rising, full curve, poor fit]",
Cc1noc(C)c1S(=O)(=O)N1CCC(C(=O)N2CCC(C)CC2)CC1,1.24,"3.66 µM [falling, partial curve, poor fit]",
CCOc1ccc(NC(=O)CN(C)C(=O)c2cc(C)on2)cc1OCC,25,,"7.31 µM [falling, partial curve, poor fit]"

Structure (SMILES),cell number change [%],AC50 [1],AC50 [2]
CCCCN1C(=O)C(=O)NC[C@@H]1C(C)CC (some centres undefined),6.64,"0.058 µM [rising, full curve]",
CCCCc1ccc(/C=C2\C(=O)c3ccccc3C(O)=C2C(=O)OCC)cc1,-3.84,"20.6 µM [falling, partial curve]",
NC(=O)c1ccsc1NC(=O)COC(=O)C1CCCN1C(=O)c1cccs1 (centres undefined),-36.4,,"32.6 µM [falling, single point]"
O=C(COc1ccc2c(-c3ccccc3)cc(=O)oc2c1)Nc1cccnc1,-3.44,"6.51 µM [falling, single point]",
O=C(COc1cccnc1[N+](=O)[O-])NCc1cccs1,,"5.8 µM [rising, full curve]",
COc1ccc(NC(=O)c2cc3c(Cl)nc4ccccc4c3s2)c(OC)c1,-0.141,"1.3 µM [rising, full curve]",
COc1ccc([C@H]2CC(=O)C=C(c3ccc(SC)cc3)C2)cc1,-59.9,"2.31 µM [falling, single point]","32.6 µM [falling, single point]"
CCC(C)C(=O)Nc1cc([N+](=O)[O-])ccc1Cl (centres undefined),-27.4,"18.4 µM [rising, single point]",
CCCC/C=C/C(NC(=O)CCc1ccccc1)c1ccccc1 (centres undefined),-2.91,"16.4 µM [rising, partial curve]",
CCc1nnc(SCC(=O)NCCC2=CCCCC2)nc1CC,27.3,"29.1 µM [rising, single point]",
O=C(NCc1ccco1)c1ccc(Cn2c(=O)c3ccccc3n(Cc3cccc(Cl)c3)c2=O)cc1,-4.18,"1.64 µM [rising, partial curve]",
CCCc1nc2c(nnn2Cc2ccccc2)c(=O)[nH]1,,,"1.84 µM [rising, partial curve]"
CC1CCN(c2nc3ccccc3nc2N2CCC(C)CC2)CC1,-32.7,"0.92 µM [falling, full curve]","2.91 µM [falling, full curve]"
O=C(O)/C=C/C(=O)Nc1ccc(N2CCOCC2)nc1N1CCOCC1,-18.6,"16.4 µM [falling, partial curve, poor fit]",
Cc1ccc(C)c(N2CCN(C(=O)Cc3c(C(=O)O)[nH]c4ccc(Cl)cc34)CC2)c1,-12.1,,
O=C(CCCN1C(=O)C(c2ccccc2)Oc2cccnc21)Nc1cccc(F)c1 (centres undefined),-28.3,"6.51 µM [rising, single point]",
CCc1ccccc1NC(=O)CN(C)C(=O)CSc1nn(-c2ccc(F)cc2)c(=S)s1,5.08,"7.31 µM [rising, single point]",
CCCCC(NC(=O)c1ccccc1)C(=O)OCC(=O)N1c2ccccc2Sc2ccccc21 (centres undefined),38.5,,
Cc1cc(Br)c(NC(=O)c2c(-c3c(Cl)cccc3Cl)noc2C)c(Br)c1,-4.17,,
COc1ccc(CN(C(=O)CNC(=O)c2ccco2)C(C(=O)NCC2CCCO2)c2ccc(OC)c(OC)c2)cc1 (centres undefined),-23.8,"0.206 µM [falling, single point]",
CN(CC(=O)NC1CCN(Cc2ccccc2)CC1)S(=O)(=O)c1ccc(Cl)s1,16.5,"3.26 µM [falling, single point]",

Structure (SMILES),cell number change [%],AC50 [1],AC50 [2]
COC(=O)c1ccc(NC(=O)c2cc3c(CO)cnc(C)c3oc2=Nc2cccc(C(N)=O)c2)cc1,13.4,"0.146 µM [falling, single point]",
CC(C)c1nnc(SCC(=O)N2CCN(C(=O)c3ccco3)CC2)n1N,-29.8,,"0.0231 µM [falling, full curve, poor fit]"
N#C/C(=C\C=C\c1ccccc1)C(=O)Nc1ccccc1,8.4,"0.116 µM [falling, full curve, poor fit]","4.11 µM [rising, single point]"
COc1ccc(-c2nc(C#N)c(NCc3ccccc3Cl)o2)cc1,1.53,"0.58 µM [rising, full curve]",
COc1ccc(-c2cc(=O)oc3cc(OC(C)C(=O)Nc4ccc(CN5CCOCC5)cc4)ccc23)cc1 (centres undefined),-20.1,"6.51 µM [rising, single point]",
CN(c1ncc(C(F)(F)F)cc1Cl)N1C(=O)c2cccc([N+](=O)[O-])c2C1=O,-38.5,,
Cc1ccc(NC(=O)N2CCCC(c3ccccc3)C2)cc1 (centres undefined),15.3,"0.366 µM [rising, full curve, poor fit]",
CC(=O)Nc1ccc(C(=O)NCC(=O)OCc2ccccc2F)cc1,,"0.164 µM [falling, full curve]",
Nc1nnc(SCC(=O)NN2C(=O)NC3(CCCCC3)C2=O)s1,5.33,"23.1 µM [rising, single point]",
C1=C(c2ccc(-c3ccccc3)cc2)Nc2ncnn2C1c1ccco1 (centres undefined),3.91,"29.1 µM [rising, single point]",
COc1ccc(C(=O)Nc2nnc(-c3ccco3)s2)cc1,-65.1,,"25.9 µM [falling, single point]"
Nc1cc2nc3ccccc3oc-2cc1=O,-5.95,"25.9 µM [falling, partial curve]",
CC1CCN(S(=O)(=O)c2ccc(Cl)cc2)CC1,1.78,,
CC(=O)Nc1c([N+](=O)[O-])cc(C)c(Cl)c1[N+](=O)[O-],-19,,
CC(CC(=O)NC1CCCCC1)S(=O)(=O)c1ccc2c(c1)CCN2C(=O)C1CC1 (centres undefined),-26.3,"29.1 µM [rising, single point]",
Cc1ccc(NC(=O)Cn2c(O)c(N=NC(N)=S)c3ccccc32)cc1,320,"29.1 µM [falling, single point]","18.4 µM [rising, partial curve]"
O=C(NCc1ccco1)c1cc2sccc2n1Cc1ccc(F)cc1,-1.51,"10.3 µM [rising, partial curve]",
CSc1ccc(/C=C/C(=O)OCC(=O)N(C)CCC#N)cc1,50.4,,"2.59 µM [rising, full curve]"
COc1ccc(NC(=O)C(CC(C)C)NC(=O)c2ccccc2C)cn1 (centres undefined),-18.6,"0.146 µM [falling, full curve, poor fit]","2.59 µM [falling, single point]"

# Already shown: 14 of the compounds above.
Structure (SMILES),cell number change [%],AC50 [1],AC50 [2]
COc1ccc(-c2nc(C#N)c(NCc3ccccc3Cl)o2)cc1,1.53,"0.58 µM [rising, full curve]",
COc1ccc(-c2cc(=O)oc3cc(OC(C)C(=O)Nc4ccc(CN5CCOCC5)cc4)ccc23)cc1 (centres undefined),-20.1,"6.51 µM [rising, single point]",
CN(c1ncc(C(F)(F)F)cc1Cl)N1C(=O)c2cccc([N+](=O)[O-])c2C1=O,-38.5,,
Cc1ccc(NC(=O)N2CCCC(c3ccccc3)C2)cc1 (centres undefined),15.3,"0.366 µM [rising, full curve, poor fit]",
CC(=O)Nc1ccc(C(=O)NCC(=O)OCc2ccccc2F)cc1,,"0.164 µM [falling, full curve]",
Nc1nnc(SCC(=O)NN2C(=O)NC3(CCCCC3)C2=O)s1,5.33,"23.1 µM [rising, single point]",
C1=C(c2ccc(-c3ccccc3)cc2)Nc2ncnn2C1c1ccco1 (centres undefined),3.91,"29.1 µM [rising, single point]",
COc1ccc(C(=O)Nc2nnc(-c3ccco3)s2)cc1,-65.1,,"25.9 µM [falling, single point]"
Nc1cc2nc3ccccc3oc-2cc1=O,-5.95,"25.9 µM [falling, partial curve]",
CC1CCN(S(=O)(=O)c2ccc(Cl)cc2)CC1,1.78,,
CC(=O)Nc1c([N+](=O)[O-])cc(C)c(Cl)c1[N+](=O)[O-],-19,,
CC(CC(=O)NC1CCCCC1)S(=O)(=O)c1ccc2c(c1)CCN2C(=O)C1CC1 (centres undefined),-26.3,"29.1 µM [rising, single point]",
Cc1ccc(NC(=O)Cn2c(O)c(N=NC(N)=S)c3ccccc32)cc1,320,"29.1 µM [falling, single point]","18.4 µM [rising, partial curve]"
O=C(NCc1ccco1)c1cc2sccc2n1Cc1ccc(F)cc1,-1.51,"10.3 µM [rising, partial curve]",
